# Taken from: PubChem BioAssay AID1259308 (NCATS, 2017)
# Test: 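Knock-downs that increase output of a recombinant reporter protein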 (primary screen)
# System: human HEK293 embryonic kidney cells stably expressing firefly luciferase (HEK-CMV-Luc2-Hygro)
# Knock-down reagent: single siRNA against human genes, 0.8 pmol siRNA per well
# Time to read-out: 72 h
# Measured: 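Reporter luminescence and viable-cell signal on separate replicate plates, given as percent of non-targeting control and median/MAD z-scores, plus per-cell luciferase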
# Scale: total luciferase, z-score and total luciferase, % of control: higher = more reporter protein produced
# Call rule: 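Active when the median/MAD z-score for overall luciferase is greater than 3; a gene was taken forward for validation with new siRNAs if at least two of its three siRNAs passed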
# Meaning of the calls: active = raised luciferase; inactive = no rise
# The deposit covers about 59,000 reagents; below is a random part of them. About 1,510 of them (2.6%) were called active. 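Calls use total luciferase alone and ignore viability, so some active siRNAs may act by altering cell number.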 A number with no mark means an inactive call. Reagents against one gene are numbered here. Not all columns of the deposit are shown.
gene,siRNA no.,"total luciferase, z-score","total luciferase, % of control"
MINPP1 (GeneID 9562),1,-0.646,69
MINPP1 (GeneID 9562),2,0.996,102
MINPP1 (GeneID 9562),3,-1.58,50.6
EN2 (GeneID 2020),1,-0.0467,81
EN2 (GeneID 2020),2,1.64,114
EN2 (GeneID 2020),3,-0.84,65.2
RAB39A (GeneID 54734),1,0.716,96.1
RAB39A (GeneID 54734),2,-0.938,63.2
RAB39A (GeneID 54734),3,-0.671,68.5
ESCO2 (GeneID 157570),1,-1.36,54.8
ESCO2 (GeneID 157570),2,-0.471,72.5
ESCO2 (GeneID 157570),3,1.29,107
CKLF (GeneID 51192),1,0.527,92.4
CKLF (GeneID 51192),2,0.114,84.2
CKLF (GeneID 51192),3,1.18,105
OR6C1 (GeneID 390321),1,0.553,92.9
OR6C1 (GeneID 390321),2,-0.541,71.1
OR6C1 (GeneID 390321),3,0.596,93.7
NXN (GeneID 64359),1,-0.332,75.3
NXN (GeneID 64359),2,-0.211,77.7
NXN (GeneID 64359),3,0.226,86.4
SPON2 (GeneID 10417),1,0.15,84.9
SPON2 (GeneID 10417),2,-0.682,68.3
SPON2 (GeneID 10417),3,1.7,116
ANKRD13A (GeneID 88455),1,-0.208,77.7
ANKRD13A (GeneID 88455),2,0.325,88.4
ANKRD13A (GeneID 88455),3,1.53,112
SAMD4A (GeneID 23034),1,0.405,90
SAMD4A (GeneID 23034),2,0.249,86.8
SAMD4A (GeneID 23034),3,-1.22,57.7
GPATCH2L (GeneID 55668),1,-0.345,75
GPATCH2L (GeneID 55668),2,-0.0693,80.5
GPATCH2L (GeneID 55668),3,-0.227,77.4

Records listed so far whose gene name begins with E or e:
gene,siRNA no.,"total luciferase, z-score","total luciferase, % of control"
EN2 (GeneID 2020),1,-0.0467,81
EN2 (GeneID 2020),2,1.64,114
EN2 (GeneID 2020),3,-0.84,65.2
ESCO2 (GeneID 157570),1,-1.36,54.8
ESCO2 (GeneID 157570),2,-0.471,72.5
ESCO2 (GeneID 157570),3,1.29,107

The results go on:
gene,siRNA no.,"total luciferase, z-score","total luciferase, % of control"
OLA1 (GeneID 29789),1,-0.303,75.9
OLA1 (GeneID 29789),2,-1.1,60
OLA1 (GeneID 29789),3,0.439,90.6
PLOD3 (GeneID 8985),1,-0.911,63.8
PLOD3 (GeneID 8985),2,-0.442,73.1
PLOD3 (GeneID 8985),3,-2.18,38.5
QRICH2 (GeneID 84074),1,-0.305,75.8
QRICH2 (GeneID 84074),2,0.445,90.7
QRICH2 (GeneID 84074),3,-0.505,71.8
FSCB (GeneID 84075),1,2.52,132
FSCB (GeneID 84075),2,-0.218,77.6
FSCB (GeneID 84075),3,-0.429,73.4
FOXL2NB (GeneID 401089),1,-0.0223,81.4
FOXL2NB (GeneID 401089),2,0.57,93.2
FOXL2NB (GeneID 401089),3,0.0838,83.6
MED28 (GeneID 80306),1,-2.03,41.5
MED28 (GeneID 80306),2,-2.73,27.5
MED28 (GeneID 80306),3,-1.88,44.5
CD300C (GeneID 10871),1,0.334,88.5
CD300C (GeneID 10871),2,-0.124,79.4
CD300C (GeneID 10871),3,-2.39,34.4
HSD17B11 (GeneID 51170),1,2.09,123
HSD17B11 (GeneID 51170),2,-0.991,62.2
HSD17B11 (GeneID 51170),3,-1.14,59.2
